Some entries share one result that the patent states for a list of compounds.
Tested on: RAW 264.7 macrophages
Experiment: detection of peroxynitrite resulting from phagocytosis by flow cytometry
Type: cell-based
Source text: The ability of the pro-fluorophore Compounds 1-8 to generate cellular fluorescence was studied. The protocol included treating living RAW 264.7 macrophages with pro-fluorophore Compounds 1-8 and quantified cellular fluorescence by flow cytometry (FIGS. 6A-6B). To trigger phagocytosis and production of endogenous peroxynitrite, these cells were additionally treated with chemically-modified amino-tentagel beads. These beads were either covalently derivatized with the fluorophore Pacific Blue, to provide a less immunostimulatory control, or covalently conjugated with DNP and non-covalently bound to anti-DNP IgG, to promote bead phagocytosis as shown in FIG. 9. To provide a spectrally orthogonal marker, lysine residues of the antibody were conjugated to PB to allow labeled beads to be distinguished from cells by flow cytometry. […] Cells were treated (4 h) with sensor Compounds 1-8 (10 μM) and 10-micron amino-tentagel beads modified either with Pacific Blue-SE (Beads-PB) or 2,4-DNP-X-SE. To the DNP-modified beads was additionally added rabbit anti-DNP IgG (Beads/IgG), conjugated to Pacific Blue via lysines, to stimulate phagocytosis.
The ER-targeting pro-fluorophores were compared with non-ER-targeted sensors of peroxynitrite: hydroxyphenyl fluorescein (HPF) and fluorescein boronate (Fl-B). Since the fluorescence of HPF can be affected by serum proteins, cells were treated with this compound in Hank's balanced salt solution (HBSS). […] In FIG. 6B, the cells were treated with Compound 3 in DMEM media or HBSS and compared with treatment with hydroxyphenyl fluorescein (HPF, 10 μM in HBSS) and fluorescein boronate (Fl-B, 50 μM in DMEM). [SIN-1]=50 μM. [FeTMPyP]=50 μM.
Detection of Peroxynitrite Resulting from Phagocytosis by Flow Cytometry.
RAW264.7 macrophages were seeded on a non-treated 96-well plate (USA Scientific) in complete media (40,000 cells, 200 μL per well) 16 h prior to treatment. These cells adhere to treated plastic very strongly, and the use of non-treated plates was required for subsequent release and analysis of cells by flow cytometry. Fluorescent sensors were diluted from DMSO stock solutions into complete media (final concentration of probe=10 μM, 0.5% DMSO). Fluorescein and Compound 3 were added to Hank's Balanced Salt Solution (HBSS, Corning, pH 7.4). Labeled tentagel beads were added to this complete media or HBSS (200,000 beads/mL). The original media was carefully removed from all wells by aspiration and replaced with the treatment media containing beads and sensors (200 μL per well) in triplicate. After incubation of treated cells at 37° C. for 4 h, aqueous propidium iodide (PI, 20 μL, 30 μM, Thermo Fisher Scientific) was added to each well (final concentration of PI=3 μM). A p200 multichannel pipette was used to release the cells from the plate via sheer force. Cellular fluorescence was analyzed by flow cytometry. Viability was determined by gating based on staining of cells with compromised membranes with PI. Tentagel beads take up significant amounts of PI, making them brighter than cells at 690/50 nm. Additionally, labeling of tentagel beads with Pacific Blue makes them brighter than cells when excited at 405 nm, and additional excitation at this wavelength was used to assure that all beads were excluded from gating of live cells. Median values of fluorescence of living cells in the FITC-A channel (525/40 nm) were compared and plotted.

Row | SMILES | detecting peroxynitrite in the ER
1 | Cc1ccccc1-c1c2cc(F)c(=O)cc-2oc2cc(N(C)c3ccc(O)c(Br)c3)c(F)cc12 [Compound 6] | all work for detecting peroxynitrite in the ER
2 | Cc1ccccc1-c1c2cc(F)c(=O)cc-2oc2cc(N(C)c3ccc(O)c(C#N)c3)c(F)cc12 [Compound 7] | all work for detecting peroxynitrite in the ER
3 | Cc1ccccc1-c1c2cc(F)c(=O)cc-2oc2cc(N(C)c3cc(Cl)c(O)c(Cl)c3)c(F)cc12 [Compound 8] | all work for detecting peroxynitrite in the ER
4 | COc1cc(N(C)c2cc3oc4cc(=O)c(F)cc-4c(-c4ccccc4C)c3cc2F)ccc1O [Compound 5] | all work for detecting peroxynitrite in the ER
5 | Cc1ccccc1-c1c2cc(F)c(=O)cc-2oc2cc(N(C)c3ccc(O)cc3)c(F)cc12 [Compound 1] | all work for detecting peroxynitrite in the ER
6 | Cc1ccccc1-c1c2cc(F)c(=O)cc-2oc2cc(N(C)c3cc(C(C)(C)C)c(O)c(C(C)(C)C)c3)c(F)cc12 [Compound 4] | all work for detecting peroxynitrite in the ER
7 | Cc1cc(N(C)c2cc3oc4cc(=O)c(F)cc-4c(-c4ccccc4C)c3cc2F)ccc1O [Compound 2] | all work for detecting peroxynitrite in the ER

Source: patent US10663471B2, “Fluorescent sensors of peroxynitrite targeted to the endoplasmic reticulum” (The University of Kansas, priority 2018, dated 2020)
